# Measurements reported in the supplement of paper PMC8728848.
# The other results are listed elsewhere or left out.
# What was measured:
# Experiment in all cases: glycan array binding signal (z-score within array); higher = stronger binding
# Details in all cases: glycan notation: IUPAC condensed, linker removed
# [1] = target: Gal(b1-4)GlcNAc(b1-3)Gal(b1-4)GlcNAc(b1-3)[Gal(b1-4)GlcNAc(b1-3)Gal(b1-4)GlcNAc(b1-6)]GalNAc
# Procedure, shortened: (§1)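 The Consortium for Functional Glycomics database supplied 3228 glycan arrays, of which those lacking an available protein sequence were dropped. The binding signal, a within-array Z-score, was averaged across arrays of the same protein sequence and across linkers. Negative scores can be read as non-binding.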
# [2] = target: Gal(b1-4)GlcNAc(b1-3)Gal(b1-4)GlcNAc(b1-6)[Gal(b1-3)]GalNAc
# Procedure, shortened: as §1
# [3] = target: Gal(b1-4)GlcNAc(b1-3)Gal(b1-4)[Fuc(a1-3)GlcNAc(b1-6)]Gal(b1-4)Glc
# Procedure, shortened: as §1
# [4] = target: Gal(b1-4)GlcNAc(b1-3)Gal(b1-4)[Fuc(a1-3)]GlcNAc(b1-3)Gal(b1-4)[Fuc(a1-3)]GlcNAc
# Procedure, shortened: as §1
# [5] = target: Gal(b1-4)GlcNAc(b1-3)GalNAc
# Procedure, shortened: as §1
# [6] = target: Gal(b1-4)GlcNAc(b1-3)[Fuc(a1-3)GlcNAc(b1-6)]Gal(b1-4)Glc
# Procedure, shortened: as §1
# [7] = target: Gal(b1-4)GlcNAc(b1-3)[Gal(b1-4)GlcNAc(b1-6)]Gal(b1-4)GlcNAc
# Procedure, shortened: as §1
# [8] = target: Gal(b1-4)GlcNAc(b1-3)[Gal(b1-4)GlcNAc(b1-6)]GalNAc
# Procedure, shortened: as §1
# [9] = target: Gal(b1-4)GlcNAc(b1-3)[GlcNAc(b1-6)]Gal(b1-4)GlcNAc
# Procedure, shortened: as §1
# [10] = target: Gal(b1-4)GlcNAc(b1-6)Gal(b1-4)GlcNAc
# Procedure, shortened: as §1
# [11] = target: Gal(b1-4)GlcNAc(b1-6)GalNAc
# Procedure, shortened: as §1
# [12] = target: Gal(b1-4)GlcNAc(b1-6)[Gal(b1-3)]GalNAc
# Procedure, shortened: as §1
# [13] = target: Gal(b1-4)GlcNAc(b1-6)[Gal(b1-4)GlcNAc(b1-3)]GalNAc
# Procedure, shortened: as §1
# Gal(b1-4)GlcNAc6P = target: Gal(b1-4)GlcNAc6P
# Procedure, shortened: as §1
# Gal(b1-6)Gal = target: Gal(b1-6)Gal
# Procedure, shortened: as §1
# Gal3S(b1-3)GalNAc = target: Gal3S(b1-3)GalNAc
# Procedure, shortened: as §1
# Gal3S(b1-3)GlcNAc = target: Gal3S(b1-3)GlcNAc
# Procedure, shortened: as §1
# [14] = target: Gal3S(b1-3)[Fuc(a1-4)]GlcNAc
# Procedure, shortened: as §1
# Gal3S(b1-4)Glc = target: Gal3S(b1-4)Glc
# Procedure, shortened: as §1
# Gal3S(b1-4)Glc6S = target: Gal3S(b1-4)Glc6S
# Procedure, shortened: as §1
# Gal3S(b1-4)GlcNAc = target: Gal3S(b1-4)GlcNAc
# Procedure, shortened: as §1
# Gal3S(b1-4)GlcNAc6S = target: Gal3S(b1-4)GlcNAc6S
# Procedure, shortened: as §1
# [15] = target: Gal3S(b1-4)[Fuc(a1-3)]Glc
# Procedure, shortened: as §1
# [16] = target: Gal3S(b1-4)[Fuc(a1-3)]Glc6S
# Procedure, shortened: as §1
# [17] = target: Gal3S(b1-4)[Fuc(a1-3)]GlcNAc
# Procedure, shortened: as §1
# [18] = target: Gal3S(b1-4)[Fuc(a1-3)]GlcNAc6S
# Procedure, shortened: as §1
# Gal3S4S(b1-4)GlcNAc = target: Gal3S4S(b1-4)GlcNAc
# Procedure, shortened: as §1
# Gal3S6S(b1-4)GlcNAc = target: Gal3S6S(b1-4)GlcNAc
# Procedure, shortened: as §1
# Gal3S6S(b1-4)GlcNAc6S = target: Gal3S6S(b1-4)GlcNAc6S
# Procedure, shortened: as §1
# Gal4S(b1-4)GlcNAc = target: Gal4S(b1-4)GlcNAc
# Procedure, shortened: as §1
# Gal4S6S(b1-4)GlcNAc = target: Gal4S6S(b1-4)GlcNAc
# Procedure, shortened: as §1
# Gal6P(b1-4)GlcNAc = target: Gal6P(b1-4)GlcNAc
# Procedure, shortened: as §1
# Gal6S(b1-3)GlcNAc = target: Gal6S(b1-3)GlcNAc
# Procedure, shortened: as §1
# Gal6S(b1-3)GlcNAc6S = target: Gal6S(b1-3)GlcNAc6S
# Procedure, shortened: as §1
# Gal6S(b1-4)Glc = target: Gal6S(b1-4)Glc
# Procedure, shortened: as §1
# Gal6S(b1-4)Glc6S = target: Gal6S(b1-4)Glc6S
# Procedure, shortened: as §1
# Gal6S(b1-4)GlcNAc = target: Gal6S(b1-4)GlcNAc
# Procedure, shortened: as §1
# Gal6S(b1-4)GlcNAc6S = target: Gal6S(b1-4)GlcNAc6S
# Procedure, shortened: as §1
# GalNAc(a1-3)Gal = target: GalNAc(a1-3)Gal
# Procedure, shortened: as §1
# GalNAc(a1-3)GalNAc = target: GalNAc(a1-3)GalNAc
# Procedure, shortened: as §1
# [19] = target: GalNAc(a1-3)GalNAc(b1-3)Gal(a1-4)Gal(b1-4)Glc
# Procedure, shortened: as §1
# [20] = target: GalNAc(a1-3)GalNAc(b1-3)Gal(a1-4)Gal(b1-4)GlcNAc
# Procedure, shortened: as §1
# GalNAc(b1-3)Gal = target: GalNAc(b1-3)Gal
# Procedure, shortened: as §1
# [21] = target: GalNAc(b1-3)Gal(a1-4)Gal(b1-4)GlcNAc
# Procedure, shortened: as §1
# [22] = target: GalNAc(b1-3)Gal(a1-4)Gal(b1-4)GlcNAc(b1-3)Gal(b1-4)Glc
# Procedure, shortened: as §1
binder,measurement,setting,value
"LlpA1 (Pseudomonas fluorescens), Q4KHC3 (protein) MGSSHHHHHHSSGLVPRGSHMAWIRYDFTDNGSSVLPARYYMAPNQYLQSPNKRFKLLFQADGNLALYDGAQLAWVADQNTPFTNVSKGNKKDPMMVFMNYGFVLDDPLRGRIWSTTPSDPTMGSREDASLRAFTQVQDDGNIVTVDTIPHWYAPNGRVFTPAVGAAMIIGGTTELVPGQFYSAGEHSLVFQGDGNLVVYGPNSSVIWATYTQNKGGVRCVMQEDGNLVIYAANNGVVWQSGTGGHPGATIRLQANGSFTIVTERPVWARFGYTPTIKPPRVFYPDHKWKTGSYTWNNVF",glycan array binding signal (z-score),[1],2.36
same,glycan array binding signal (z-score),[2],0.513
same,glycan array binding signal (z-score),[3],-1.22
same,glycan array binding signal (z-score),[4],-0.77
same,glycan array binding signal (z-score),[5],-0.927
same,glycan array binding signal (z-score),[6],0.792
same,glycan array binding signal (z-score),[7],1.07
same,glycan array binding signal (z-score),[8],-0.666
same,glycan array binding signal (z-score),[9],-0.626
same,glycan array binding signal (z-score),[10],-0.35
same,glycan array binding signal (z-score),[11],0.034
same,glycan array binding signal (z-score),[12],-0.144
same,glycan array binding signal (z-score),[13],0.09
same,glycan array binding signal (z-score),Gal(b1-4)GlcNAc6P,0.521
same,glycan array binding signal (z-score),Gal(b1-6)Gal,0.188
same,glycan array binding signal (z-score),Gal3S(b1-3)GalNAc,-0.814
same,glycan array binding signal (z-score),Gal3S(b1-3)GlcNAc,-0.198
same,glycan array binding signal (z-score),[14],-0.125
same,glycan array binding signal (z-score),Gal3S(b1-4)Glc,-0.397
same,glycan array binding signal (z-score),Gal3S(b1-4)Glc6S,-0.494
same,glycan array binding signal (z-score),Gal3S(b1-4)GlcNAc,-0.033
same,glycan array binding signal (z-score),Gal3S(b1-4)GlcNAc6S,-0.806
same,glycan array binding signal (z-score),[15],-0.518
same,glycan array binding signal (z-score),[16],0.321
same,glycan array binding signal (z-score),[17],-0.22
same,glycan array binding signal (z-score),[18],1.43
same,glycan array binding signal (z-score),Gal3S4S(b1-4)GlcNAc,-0.125
same,glycan array binding signal (z-score),Gal3S6S(b1-4)GlcNAc,0.103
same,glycan array binding signal (z-score),Gal3S6S(b1-4)GlcNAc6S,0.576
same,glycan array binding signal (z-score),Gal4S(b1-4)GlcNAc,0.315
same,glycan array binding signal (z-score),Gal4S6S(b1-4)GlcNAc,-0.461
same,glycan array binding signal (z-score),Gal6P(b1-4)GlcNAc,-0.476
same,glycan array binding signal (z-score),Gal6S(b1-3)GlcNAc,0.571
same,glycan array binding signal (z-score),Gal6S(b1-3)GlcNAc6S,-0.202
same,glycan array binding signal (z-score),Gal6S(b1-4)Glc,-0.314
same,glycan array binding signal (z-score),Gal6S(b1-4)Glc6S,0.637
same,glycan array binding signal (z-score),Gal6S(b1-4)GlcNAc,0.079
same,glycan array binding signal (z-score),Gal6S(b1-4)GlcNAc6S,-0.144
same,glycan array binding signal (z-score),GalNAc(a1-3)Gal,0.451
same,glycan array binding signal (z-score),GalNAc(a1-3)GalNAc,0.146
same,glycan array binding signal (z-score),[19],-0.323
same,glycan array binding signal (z-score),[20],-0.542
same,glycan array binding signal (z-score),GalNAc(b1-3)Gal,-0.721
same,glycan array binding signal (z-score),[21],-0.435
same,glycan array binding signal (z-score),[22],-0.126

# Looked up one by one from above, four records:
binder,measurement,setting,value
"LlpA1 (Pseudomonas fluorescens), Q4KHC3 (protein) MGSSHHHHHHSSGLVPRGSHMAWIRYDFTDNGSSVLPARYYMAPNQYLQSPNKRFKLLFQADGNLALYDGAQLAWVADQNTPFTNVSKGNKKDPMMVFMNYGFVLDDPLRGRIWSTTPSDPTMGSREDASLRAFTQVQDDGNIVTVDTIPHWYAPNGRVFTPAVGAAMIIGGTTELVPGQFYSAGEHSLVFQGDGNLVVYGPNSSVIWATYTQNKGGVRCVMQEDGNLVIYAANNGVVWQSGTGGHPGATIRLQANGSFTIVTERPVWARFGYTPTIKPPRVFYPDHKWKTGSYTWNNVF",glycan array binding signal (z-score),Gal6S(b1-3)GlcNAc,0.571
same,glycan array binding signal (z-score),[14],-0.125
same,glycan array binding signal (z-score),[22],-0.126
same,glycan array binding signal (z-score),Gal3S6S(b1-4)GlcNAc,0.103
